Source: US20090300802A1 (WASHINGTON STATE UNIVERSITY RESEARCH FOUNDATION, published 2009)
Results are given in words; binding and its absence hold for the method and conditions named. Some binding calls cover weakened binding; strength is not graded here.

Target: T1, AtPEPR1 (Arabidopsis thaliana, UniProt Q9SSL9 29-1123, glycosylated (about 180 kD, about 150 kD after PNGase F))
T1 sequence: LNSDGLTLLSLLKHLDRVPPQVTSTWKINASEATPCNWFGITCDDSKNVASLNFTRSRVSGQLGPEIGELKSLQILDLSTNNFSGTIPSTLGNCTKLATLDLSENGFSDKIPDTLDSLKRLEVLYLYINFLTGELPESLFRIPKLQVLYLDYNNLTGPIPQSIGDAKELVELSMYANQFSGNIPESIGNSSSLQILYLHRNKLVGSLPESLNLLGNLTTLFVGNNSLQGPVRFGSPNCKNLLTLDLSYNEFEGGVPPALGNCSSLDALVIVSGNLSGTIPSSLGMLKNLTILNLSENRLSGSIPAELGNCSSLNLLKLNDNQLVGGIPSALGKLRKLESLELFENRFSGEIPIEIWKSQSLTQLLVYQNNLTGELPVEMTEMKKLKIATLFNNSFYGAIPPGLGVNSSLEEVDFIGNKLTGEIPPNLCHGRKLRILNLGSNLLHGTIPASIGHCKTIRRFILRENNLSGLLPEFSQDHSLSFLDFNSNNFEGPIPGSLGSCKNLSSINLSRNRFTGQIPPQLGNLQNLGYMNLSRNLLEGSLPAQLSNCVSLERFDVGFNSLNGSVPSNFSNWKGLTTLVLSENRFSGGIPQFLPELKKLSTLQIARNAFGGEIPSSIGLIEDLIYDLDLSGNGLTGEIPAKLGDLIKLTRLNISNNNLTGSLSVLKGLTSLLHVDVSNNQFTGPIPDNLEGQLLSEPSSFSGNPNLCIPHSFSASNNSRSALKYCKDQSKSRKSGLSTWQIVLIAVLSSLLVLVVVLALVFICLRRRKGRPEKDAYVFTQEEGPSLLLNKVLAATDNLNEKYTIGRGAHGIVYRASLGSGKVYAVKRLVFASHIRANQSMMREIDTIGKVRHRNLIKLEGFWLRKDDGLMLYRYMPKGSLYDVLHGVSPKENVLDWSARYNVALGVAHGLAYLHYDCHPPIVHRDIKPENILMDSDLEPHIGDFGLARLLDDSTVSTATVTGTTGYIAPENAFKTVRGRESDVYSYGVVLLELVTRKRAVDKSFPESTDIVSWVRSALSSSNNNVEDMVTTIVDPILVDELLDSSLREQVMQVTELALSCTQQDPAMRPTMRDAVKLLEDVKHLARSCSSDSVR
Assay: competition with 125I1-Tyr-AtPep1 on Arabidopsis suspension cultured cells

B1: AtPep2 (peptide)
peptide: SLNVMRKGIRKQPVSSGKRGGVN
  binding: binds

B2: AtPep3 (peptide)
peptide: DNKAKSKKRDKEKPSSGRPGQTN
  binding: binds

B3: AtPep4 (peptide)
peptide: EIKARGKNKTKPTPSSGKGGKHN
  binding: binds
